{"source": "PubChem BioAssay AID1224826 – NIAID, 2016", "assay": "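Genes that change LPS-induced Tnf promoter activity in mouse macrophages when knocked down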 (primary screen)", "system": "RAW264.7 G9 macrophages from mouse bearing reporters for p65 (GFP) and the Tnf promoter (mCherry)", "reagents": "siRNA pool against mouse genes, 100 nM", "timing": "16 h of LPS stimulation, after 2 days of siRNA transfection", "treatment": "bacterial lipopolysaccharide (Salmonella minnesota R595), 10 ng/ml", "read-out": "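Imaged Tnf reporter mCherry in nuclei, minus background, normalised per plate to the median and expressed as robust z-scores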", "reading the numbers": "Tnf reporter robust z-score: higher = stronger Tnf promoter reporter signal after LPS", "rule for the call": "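a well counts as active at a score of -1.3 or below (Tlr4 knock-down control median) or above 3 (raised signal); controls and wells holding fewer than 50 cells are excluded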", "meaning of the calls": "active = Tnf reporter clearly lowered or raised; inactive = no clear change in Tnf reporter", "note": "The whole screen tested about 17,000 reagents; this is a random part of them. About 1,110 of all reagents (6.6%) count as active. 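Active means lowered or raised reporter signal; replicate intensities are raw and not normalised per plate.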 Further read-outs or replicates are left out here."}
{"gene knocked down": "Spns2", "Tnf reporter robust z-score": 0.13, "fewer than 50 cells in well": "enough cells in well", "outcome": "inactive"}
{"gene knocked down": "Dhx30", "fewer than 50 cells in well": "fewer than 50 cells per well; well left out of calls", "outcome": "inactive"}
{"gene knocked down": "Zbtb1", "Tnf reporter robust z-score": 1.18, "fewer than 50 cells in well": "enough cells in well", "outcome": "inactive"}
{"gene knocked down": "Slc11a1", "Tnf reporter robust z-score": -1.08, "fewer than 50 cells in well": "enough cells in well", "outcome": "inactive"}
{"gene knocked down": "Chd2", "Tnf reporter robust z-score": 0.31, "fewer than 50 cells in well": "enough cells in well", "outcome": "inactive"}
{"gene knocked down": "Parvg", "Tnf reporter robust z-score": 0.91, "fewer than 50 cells in well": "enough cells in well", "outcome": "inactive"}
{"gene knocked down": "Mki67", "Tnf reporter robust z-score": 1.16, "fewer than 50 cells in well": "enough cells in well", "outcome": "inactive"}
{"gene knocked down": "Plppr1", "Tnf reporter robust z-score": 2.18, "fewer than 50 cells in well": "enough cells in well", "outcome": "inactive"}
{"gene knocked down": "Dxo", "Tnf reporter robust z-score": -0.08, "fewer than 50 cells in well": "enough cells in well", "outcome": "inactive"}
{"gene knocked down": "Scn1b", "Tnf reporter robust z-score": 0.56, "fewer than 50 cells in well": "enough cells in well", "outcome": "inactive"}
{"gene knocked down": "Spef1", "fewer than 50 cells in well": "fewer than 50 cells per well; well left out of calls", "outcome": "inactive"}
{"gene knocked down": "Usb1", "Tnf reporter robust z-score": 0.32, "fewer than 50 cells in well": "enough cells in well", "outcome": "inactive"}

2 successive reagents from above, for reference:
{"gene knocked down": "Zbtb1", "Tnf reporter robust z-score": 1.18, "fewer than 50 cells in well": "enough cells in well", "outcome": "inactive"}
{"gene knocked down": "Slc11a1", "Tnf reporter robust z-score": -1.08, "fewer than 50 cells in well": "enough cells in well", "outcome": "inactive"}
